Source: publication PMC6356585 (Viruses, 2018)
Counter-ions that a name gives are not always drawn.

Test system: C6/36 cells
Assay type: cell-based, Ae. albopictus
Conditions: 10 µM

## CCCCc1oc2ccccc2c1C(=O)c1cc(I)c(OCCN(CC)CC)c(I)c1 [Amiodarone HCl]
  C6/36 Viability: 44 ± 15.3% of untreated control
